A short description of this assay: qHTS Assay to Find Inhibitors of Chronic Active B-Cell Receptor Signaling. The note with it: ABC-DLBCL IkBa-CBG/CBR reporter, luminescence ratio (green luciferase fused to IkBa over red control in TMD8 lymphoma cells), 4 h. In a few lines: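 TMD8 human ABC-DLBCL cells with doxycycline-inducible IκBα–green luciferase fusion and unfused red luciferase, in 0.5% FBS medium; compounds up to 46 uM, 4 h at 37C. Green/red luminescence ratio, filter-overlap corrected, fitted to concentration-response curves.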
In general terms: qHTS replaces the single test concentration by a dilution series.

[1] abbreviates: measured here: CBR red luminescence, cell number.
Setting [2] is: measured here: IkBa-CBG green luminescence.

This is one part of the list. Shown are side measurements of this screen, not its main read-out; they come without a call. Compounds called inactive in the main read-out are mostly missing here. Potencies come from curve fits of mixed quality, noted in brackets.

As to `O=C(CCN1CCCCCC1)Nc1ccc(F)c(F)c1`, the AC50 (as a rule, the concentration giving half of the maximal activity seen) under setting [1] was 35.5 µM [falling, single point].

Consider `Nn1cnnc1N/N=C/c1cccc(Cl)c1Cl`, for which the AC50 under setting [1] was 35.5 µM [falling, single point].

On to `N#CC1(NC(=O)CN2CCN(S(=O)(=O)c3ccccc3F)CC2)CCCC1`, for which the half-maximal activity concentration (AC50) under setting [1] is 5.62 µM [rising, single point].

Turning to `O=C(NCC1CCCO1)c1cc(S(=O)(=O)N2CCCCC2)ccc1Cl` (stereo not drawn), the AC50 under setting [1] was 29.1 µM [rising, single point].

For the compound `OCC12COC(c3ccccc3)N1C(c1ccccc1)OC2` (stereo not drawn), the AC50 under setting [1] is 22.4 µM [rising, single point].

Turning to `COCCOc1ccc(C(F)(F)F)cc1Nc1nc2ccccc2o1`, the half-maximal activity concentration (AC50) under setting [1] is 8.2 µM [falling, partial curve, poor fit].

Turning to `Cc1nc([N+](=O)[O-])c(Br)n1CC(=O)c1cccc([N+](=O)[O-])c1`, the AC50 under setting [1] was 17.8 µM [falling, partial curve, poor fit].

For the compound `COc1ccc(C(=O)NCCN2CCCC2)cc1`, under setting [1], the AC50 was 11.2 µM [rising, partial curve, poor fit].

On to `O=C(c1ccccc1)c1ccc2c(c1)OCCOCCOCCOCCO2`, for which the AC50 under setting [1] is 0.1 µM [falling, full curve, poor fit].

For `CN(CC(=O)NCc1ccc2c(c1)OCO2)S(=O)(=O)c1ccc(Br)s1`, the AC50 under setting [1] was 2.31 µM [rising, partial curve, poor fit].

With `CC(C)CNC(=O)c1ccc(C2SCC(=O)N2Cc2ccccc2)cc1` (stereo not drawn), the AC50 under setting [1] was 35.5 µM [rising, partial curve, poor fit].

For the compound `COc1ccc(N2CC(C(=O)N/N=C/c3ccc(C)cc3)CC2=O)cc1` (stereo not drawn), under setting [1], the AC50 was 35.5 µM [rising, single point].

`O=C1CCN(CCc2ccccc2)CCN1[C@H](COc1ccccc1)c1ccccc1`: the AC50 under setting [1] is 12.6 µM [falling, partial curve, poor fit].

With `O=C(COC(=O)/C=C/c1ccc2ccccc2n1)NNC(=O)c1ccc([N+](=O)[O-])cc1`, under setting [1], the AC50 is 29.1 µM [falling, single point].

Turning to `Cc1ccc(NC(=O)Cn2nnc(-c3ccccc3-n3cnnn3)n2)c(C)c1`, the AC50 under setting [1] was 0.316 µM [rising, full curve, poor fit].

Turning to `Cc1ccc2cccc(NC3OC(=O)c4ccccc43)c2n1` (stereo not drawn), under setting [1], the AC50 was 0.13 µM [rising, full curve, poor fit].

`Cc1ccc(C(=O)N/N=C\c2cccnc2)s1`: the AC50 under setting [1] was 11.2 µM [falling, single point].

In the case of `COc1ccc2c(-c3ccccc3)cc3nnnn3c2c1`, under setting [1], the AC50 is 2.24 µM [rising, full curve, poor fit].

As for `c1ccc(-c2oc3ncnc(NCCN4CCOCC4)c3c2-c2ccccc2)cc1`, the AC50 under setting [1] was 11.6 µM [falling, partial curve, poor fit].

Take `CCOC(=O)CCSc1cc(C)c2ccccc2n1`: the AC50 under setting [1] was 8.91 µM [rising, partial curve, poor fit].

Regarding `COc1ccc(NC(=O)C2(c3ccccc3)CCCC2)cc1`, the AC50 under setting [1] was 7.94 µM [rising, partial curve].

On to `c1ccc(-c2cc3ccccc3cn2)cc1`, for which the AC50 under setting [1] was 0.0651 µM [rising, full curve, poor fit].

For `Cc1ccccc1C(=O)N1CCc2cc(-c3csc(NC(=O)CN4CCCC4)n3)ccc21`, the AC50 under setting [1] is 15.8 µM [falling, single point].

Regarding `C/C(=N\NC(=O)c1ccc(O)cc1)c1ccc2c(c1)Nc1ccccc1S2`, the half-maximal activity concentration (AC50) under setting [1] was 1.84 µM [falling, partial curve, poor fit].

With `O=C(Nc1ccc(-c2nc3ccccc3[nH]2)cc1)C1CCCO1` (stereo not drawn), the AC50 under setting [1] is 10.3 µM [falling, partial curve].

In the case of `Cc1ccc2nc(-c3ccccc3C)oc(=O)c2c1`, the AC50 under setting [1] was 8.91 µM [falling, partial curve, poor fit].

Take `O=C(CCCc1ccccc1)N1CCc2ccccc21`: the concentration at half-maximal activity (AC50) under setting [1] was 16.4 µM [falling, single point].

As for `O=C(Nc1ccccc1Cl)c1ccccc1Cc1ccccc1`, under setting [1], the concentration at half-maximal activity (AC50) is 18.4 µM [rising, single point].

On to `Cc1ccc([N+](=O)[O-])cc1-c1ccc(/C=C(\C#N)c2[nH]nc(N)c2C#N)o1`, for which the AC50 under setting [1] was 16.4 µM [rising, partial curve].

Turning to `Oc1cccc(NC(=S)Nc2ccccc2)c1`, under setting [1], the half-maximal activity concentration (AC50) was 3.16 µM [rising, full curve, poor fit].

In the case of `COc1ccc(C[C@H]2CN3C(=NC[C@@H]3C(C)C)N2CCNC(=O)c2ccc(C)c(Br)c2)cc1`, the AC50 under setting [1] is 12.6 µM [falling, single point].

For the compound `CCOc1cc(C2NC(=O)N(C)C(C)=C2C(=O)OC)cc(Br)c1O` (stereo not drawn), the half-maximal activity concentration (AC50) under setting [1] is 0.461 µM [falling, partial curve, poor fit].

Consider `CC(C)(O)C#Cc1ccc(C(=O)NCc2ccccc2F)cc1`, for which, under setting [1], the concentration at half-maximal activity (AC50) was 1.84 µM [rising, full curve, poor fit].

Regarding `COc1cc(OC)cc(C(=O)NCC(=O)N2CC=C(c3ccccc3)CC2)c1`, the concentration at half-maximal activity (AC50) under setting [1] was 9.2 µM [rising, partial curve, poor fit] and the concentration at half-maximal activity (AC50) under setting [2] is 9.2 µM [falling, partial curve].

Consider `Cc1c(CCOC(=O)c2ccc(N3CCOCC3)c([N+](=O)[O-])c2)sc[n+]1CC#N`, for which the AC50 runs as follows: under setting [1], 12.6 µM [rising, partial curve]; under setting [2], 22.4 µM [falling, single point].

With `Cn1c(=O)c2c(nc(Oc3ccccc3)n2C)n(C)c1=O`, the AC50 under setting [2] was 2.06 µM [rising, partial curve, poor fit].

Consider `O=C(NC1CCN(C(=S)NCCc2ccccc2)CC1)C1CC1`, for which, under setting [1], the AC50 is 35.5 µM [rising, single point].

Take `COC(=O)c1c[nH]n2c(=O)c(Cc3ccc(F)cc3Cl)c(C)nc12`: the AC50 under setting [1] is 2.82 µM [falling, full curve, poor fit].

For the compound `CCc1c(C)sc(NC(=O)c2cc(C(C)C)on2)c1C#N`, under setting [1], the AC50 is 2.24 µM [rising, full curve, poor fit].

On to `Cc1ccc(CNC(=O)c2ccc(CS(=O)(=O)Cc3ccc(F)cc3)o2)cc1`, for which the AC50 under setting [1] was 8.91 µM [rising, partial curve].

With `CC1(C)S[C@@H]2[C@H](NC(=O)[C@H](N)c3ccc(O)cc3)C(=O)N2[C@H]1C(=O)O`, the AC50 under setting [1] was 29.1 µM [rising, single point].

(Values after PubChem BioAssay AID493014 (National Center for Advancing Translational Sciences (NCATS), 2011).)
